Amino acid sequences for entries named in this document (tags omitted). Residues count along the entry.
UniProt A0A0N9FGL8, 2-256: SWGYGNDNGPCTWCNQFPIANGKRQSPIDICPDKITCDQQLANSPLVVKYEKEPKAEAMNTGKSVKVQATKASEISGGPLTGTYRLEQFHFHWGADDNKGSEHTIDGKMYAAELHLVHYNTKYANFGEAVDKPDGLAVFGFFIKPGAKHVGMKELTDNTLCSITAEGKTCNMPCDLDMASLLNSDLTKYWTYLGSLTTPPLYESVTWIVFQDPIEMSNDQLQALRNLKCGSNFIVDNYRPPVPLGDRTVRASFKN

According to paper PMC6010101, “Cloning, expression and purification of the α-carbonic anhydrase from the mantle of the Mediterranean mussel, Mytilus galloprovincialis” (Journal of Enzyme Inhibition and Medicinal Chemistry, 2017):

Molecular target: T1, rec-MgaCA (Mytilus galloprovincialis, UniProt A0A0N9FGL8)
T1 construct: gene CAII
Details: CO2 1.7-17 mM; 10-20 mM TRIS pH 8.3; 20 mM Na2SO4; 15 min pre-incubation at room temperature; Cheng-Prusoff

KI (acetazolamide) (nM): 361 ± 5% nM
Compound: CC(=O)Nc1nnc(S(N)(=O)=O)s1 [AAZ, acetazolamide]
